Values of other authors, collected in patent US20110268793A9, “KITS AND METHODS FOR NUTRITION SUPPLEMENTATION” (priority 2004, published 2011).
For at least one compound, name, drawing or mass did not settle the structure.

Conditions: DHA supplementation during pregnancy

## CC/C=C\C/C=C\C/C=C\C/C=C\C/C=C\C/C=C\CCC(=O)O [DHA, docosahexaenoic acid]
  increase in length of gestation: about six
